Assay results reported in PubChem BioAssay AID2517 (National Center for Advancing Translational Sciences (NCATS), 2010).
“And” between values parts separate entries of the source, which are not always exact repeats. Identical values can stand only once. Screen size: about 350,000 compounds; about 1,200 (0.34%) were called active. The inconclusive results got no clear call from the source; some entries with a clear call stand among them for comparison. The call rests on the fitted dose curve; in most records, active means well fitted inhibition curve with a large enough effect; inconclusive means small, poorly fitted or top-dose-only effect; inactive means no such curve, though single readings can be large or run the other way. A potency beside an inconclusive call is a rough fit, not a confirmed value.

Chains of the proteins cited; added tags and fusions are not shown.
UniProt P27695, whole entry, looked up: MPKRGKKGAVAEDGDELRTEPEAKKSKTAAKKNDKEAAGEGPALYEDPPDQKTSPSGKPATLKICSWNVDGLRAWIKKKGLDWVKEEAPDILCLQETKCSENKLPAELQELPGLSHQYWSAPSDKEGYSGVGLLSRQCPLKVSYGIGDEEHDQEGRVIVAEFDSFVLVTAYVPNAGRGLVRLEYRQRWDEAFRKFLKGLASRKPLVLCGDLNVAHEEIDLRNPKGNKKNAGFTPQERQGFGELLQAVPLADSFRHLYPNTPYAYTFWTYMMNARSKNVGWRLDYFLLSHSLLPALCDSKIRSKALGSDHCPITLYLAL

What follows are compounds tested against DNA repair nuclease/redox regulator APEX1 (Homo sapiens) (UniProt P27695) (assay: qHTS Assay for Inhibitors of the Human Apurinic/apyrimidinic Endonuclease 1 (APE1)). Details: recombinant APE1, TAMRA/BHQ-2 abasic DNA cleavage fluorescence; series mostly up to 65.8 µM.
Method in brief: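 Endonuclease cleavage of a quenched abasic-site DNA duplex (50 nM) by APE1 (0.75 nM) was tracked by TAMRA dequenching. Compounds were preincubated with enzyme 15 min at room temperature; data normalized to buffer-only and DMSO wells plus NSC13755 control.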
Further: nearly all actives have a fitted effect of over 55% in size.
Potency means the concentration at half of the fitted maximal effect.

Structure (SMILES)	Potency
Oc1c(Br)cc(/C=N/n2c(-c3ccccc3)n[nH]c2=S)c(Br)c1O	active: 0.423 µM
Cc1noc(C)c1COC(=O)c1cnc(Cl)c(Cl)c1	inconclusive: 8.91 µM [inhibitor, single point]
CCN(CC)S(=O)(=O)c1ccc2c(c1)nc(SCc1nc3ccsc3c(=O)[nH]1)n2CC	inactive
O=C(O)c1cccc(Cl)c1Cl	inactive
Cc1ccccc1NS(=O)(=O)c1cc(C(=O)N2CCc3ccccc3C2)ccc1C	inactive
CCC1C/C(=C/c2ccco2)C(=O)/C(=C/c2ccco2)C1 (configuration not stated)	inconclusive: 31.6 µM [inhibitor, single point]
O=C(NCCc1c[nH]c2ccccc12)C(=O)NCC1CCCO1 (configuration not stated)	inconclusive: 35.5 µM [inhibitor, single point]
Cc1cccc(NC(=S)NCc2cccs2)c1	inactive
O=C(COc1ncnc2sccc12)N1CCN(C(=O)c2ccco2)CC1	inconclusive: 31.6 µM [inhibitor, single point]
Cc1onc(-c2ccccc2)c1C(=O)NNC(=S)NC(=O)c1ccc2c(c1)OCO2	inconclusive: 3.55 µM [inhibitor, single point]
CCCc1cc(=O)[nH]c(/N=C(/NC(=O)C(C)N2C(=O)c3ccccc3C2=O)Nc2ccccc2)n1 (configuration not stated)	inconclusive: 0.199 µM [inhibitor, full curve]
C#CCOCCOCCOCCNc1nc(N2CCN(C(=O)CCCCCCCCCCNC(=O)[C@H](CCCCN)n3cc(C[C@@H](C)CC)nn3)CC2)nc(N2CCN(C(=O)CCCCCCCCCCNC(=O)[C@@H]([C@H](C)O)n3cc(C)nn3)CC2)n1	inconclusive: 33.6 µM [inhibitor, single point]
COC(=O)c1c(C(=O)OC)c(-c2ccc(C)cc2)n2c1CCC2	inconclusive: 1.41 µM [inhibitor, full curve]
CCC(NC(=O)C1CCCO1)c1ccccc1 (configuration not stated)	inactive
Cc1ccc(S(=O)(=O)N2CCN(C(=O)COc3ccc(C)nc3[N+](=O)[O-])CC2)c(C)c1	inconclusive: 8.91 µM [inhibitor, single point]
O=C(NCc1ccccn1)C1(C(F)(F)F)CC(CCCO)CCCO1 (configuration not stated)	inactive
CN(C)S(=O)(=O)n1cnc(C(CCO)c2ncn(S(=O)(=O)N(C)C)c2CCCO)c1 (configuration not stated)	inactive
CCOc1cc(C(=O)Nc2cc(C)on2)cc(OCC)c1OCC	inconclusive: 44.7 µM [inhibitor, single point]
O=c1oc2ccccc2c2oc3cc(O)c(O)cc3c12	inconclusive: 14.1 µM [inhibitor, partial curve] and inconclusive: 17.8 µM [inhibitor, partial curve, poor fit]
O=C(COC(=O)c1ccccc1C(=O)c1ccccc1)Nc1ccc(SC(F)F)cc1	inconclusive: 44.7 µM [inhibitor, single point]

Structure (SMILES)	Potency
CCOC(=O)c1cc2c(ccc3ccccc32)oc1=O	inconclusive: 28.2 µM [inhibitor, single point]
CCOC(=O)C(C(=O)OCC)c1cc(Br)c2noc3c2c1C(=O)c1ccccc1-3	inconclusive: 7.94 µM [inhibitor, single point]
CC(C)=C1SC(N2CCOCC2)=NC1=O	inconclusive: 6.31 µM [inhibitor, partial curve, poor fit]
Cc1ccc(C)c(NC(=O)c2nnn(Cc3ccccc3C)c2N)c1	inconclusive: 31.6 µM [inhibitor, partial curve, poor fit]
CSc1ccc(/C=C(\C(=O)O)c2ccc(S(=O)(=O)N3CCCCC3)s2)cc1	inconclusive: 28.2 µM [inhibitor, single point]
COC(=O)C1=C(C)N(c2ccc(OC)c(OC)c2)C(=O)/C1=C\c1ccco1	inconclusive: 44.7 µM [inhibitor, single point]
C/C(N)=C(/C#N)C(=O)CSc1nc2ccccc2c(=O)n1CCCO	inconclusive: 39.8 µM [inhibitor, single point]
O=C(O)c1ccc(N2C(=O)c3cccc4c(C(=O)O)ccc(c34)C2=O)cc1	active: 12.6 µM
CCOC(=O)c1ccc(CC(=O)c2ccc(O)c(O)c2O)o1	inconclusive: 0.794 µM [inhibitor, full curve]
COc1ccc2c(c1)C(c1ccc(C)o1)=NNC(c1ccccc1)=N2	inconclusive: 39.8 µM [inhibitor, single point]
Clc1ccc(N=c2ssnc2Cl)cc1	inactive
Cc1ccc(NC(=O)CSc2nc(N)c(-c3ccccc3)c(=O)[nH]2)cc1Cl	inconclusive: 35.5 µM [inhibitor, single point]
Cc1nn(-c2ccccc2)c(C)c1/C=N/NC(=O)CSc1nc2ccccc2c(=O)n1-c1ccc(Br)cc1	inconclusive: 1000 µM [inhibitor, partial curve, poor fit]
Cc1ccc(C(=O)CSc2nnc(COc3cccc(C)c3)o2)cc1	inconclusive: 44.7 µM [inhibitor, single point]
CCOC(=O)c1c(NC(=O)C2C3C=CC(C3)C2(C)C(=O)O)sc2c1CCCC2 (configuration not stated)	inconclusive: 7.94 µM [inhibitor, partial curve]
O=C(/C=C/c1cn(CC(O)CN2CCOCC2)c2ccccc12)c1cccs1 (configuration not stated)	inconclusive: 3.16 µM [inhibitor, single point]
CCOc1cccc(CNCc2ccc(C(=O)O)cc2)c1	inconclusive: 0.199 µM [inhibitor, full curve, poor fit]
O=[N+]([O-])c1ccccc1N/N=C/c1cccc(O)c1O	inactive
OC[C@@H]1[C@@H](c2ccc(F)cc2)C(c2ccccc2)=NN1c1ccccc1	inconclusive: 0.0071 µM [inhibitor, full curve, poor fit]
COc1ccc(NS(=O)(=O)c2cccc(C(=O)N/N=C(\C)c3ccncc3)c2)cc1	inconclusive: 31.6 µM [inhibitor, single point]
Clc1ccc(Cc2ccccc2)nn1	inactive
